# Data reported in PubChem BioAssay AID743266 (National Center for Advancing Translational Sciences (NCATS), 2014).
# By UniProt entry, the sequences of proteins in these tests, tags left out. Where a name states a change or a piece, a line headed by the entry shows the natural chain unless it says otherwise.
# UniProt Q03431: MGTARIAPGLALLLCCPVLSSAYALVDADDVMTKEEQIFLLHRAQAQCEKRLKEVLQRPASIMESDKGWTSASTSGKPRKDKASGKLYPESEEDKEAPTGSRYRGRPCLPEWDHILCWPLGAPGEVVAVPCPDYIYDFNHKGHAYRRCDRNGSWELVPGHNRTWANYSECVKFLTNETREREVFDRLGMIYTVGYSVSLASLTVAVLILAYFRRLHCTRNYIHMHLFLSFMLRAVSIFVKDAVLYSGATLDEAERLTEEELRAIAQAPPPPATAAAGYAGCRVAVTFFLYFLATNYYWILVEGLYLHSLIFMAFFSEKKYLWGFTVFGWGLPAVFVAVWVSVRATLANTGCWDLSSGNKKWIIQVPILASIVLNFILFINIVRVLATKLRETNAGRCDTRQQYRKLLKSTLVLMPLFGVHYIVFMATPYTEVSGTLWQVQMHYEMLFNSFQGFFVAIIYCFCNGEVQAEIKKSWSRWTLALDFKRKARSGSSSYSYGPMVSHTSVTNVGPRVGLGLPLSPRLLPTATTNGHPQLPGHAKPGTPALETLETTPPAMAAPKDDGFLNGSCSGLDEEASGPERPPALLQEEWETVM
# Hit rate of the full screen: of about 410,000 compounds, about 310 (0.076%) were called active. The inconclusive results got no clear call from the source; some entries with a clear call stand among them for comparison. Calls follow the shape of the dose curve; as a rule, active = well fitted activation curve with a large enough effect; inconclusive = small, poorly fitted or top-dose-only effect, or another doubt; inactive = no such curve, though single readings can be large or run the other way. Where the call is inconclusive, the potency comes from a doubtful curve fit.
# Molecular target: Parathyroid hormone/parathyroid hormone-related peptide receptor (Homo sapiens) (UniProt Q03431)
# Experiment: qHTS for PTHR1 Agonists: Primary Screen; also: nearly all actives have a fitted effect of over 55% in size
# Settings: HEK293 GP2 PTHR1 cells, GloSensor cAMP luminescence, 1 h; activation: at 115 µM (top of the series) unless noted; series mostly up to 115 µM
# Outline: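 HEK-293-derived GP2 cells expressing PTHR1 and a GloSensor cAMP reporter, 3,000/well, plated overnight, given luciferin plus IBMX (each 0.5 mM as added) for 1 h at 37 °C, then compound for 1 h at 37 °C. Luminescence was read after 15 min at room temperature.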
# Potency is read from the fitted curve at half-maximal effect.
SMILES,Potency,activation,outcome
CCOC(=O)c1c(NC(=O)c2cccs2)sc(C)c1CC,"inconclusive: 0.61 µM [activator, full curve, poor fit]",,
Cc1ccc(S(=O)(=O)c2nnn3c2nc(N2CCCC2)c2sccc23)cc1,,inconclusive: 36.2% [activator],
CCOc1ccccc1Nc1ncnc2c1cnn2-c1ccccc1,,inconclusive: 48.7% [activator],
COc1ccc(NC(=O)[C@H](NC(=O)[C@@H]2Cc3ccccc3CN2)c2ccccc2)cc1,"inconclusive: 70.8 µM [activator, partial curve, poor fit]",,
O=C(CN1C(=O)NC2(CCc3ccccc32)C1=O)Nc1ccc(Br)cc1F (stereo unspecified),,inconclusive: 34.8% [activator],
CCCOc1ccc(F)cc1-c1cc(C(=O)NCc2cccs2)[nH]n1,,inconclusive: 38.8% [activator],
CCOc1ccc(C(=O)Nc2ccc(S(=O)(=O)Nc3nc(C)cc(C)n3)cc2)cc1OC,"inconclusive: 79.4 µM [activator, partial curve, poor fit]",,
CCOC(=O)c1c(NC(=O)C2COc3ccccc3O2)sc2c1CC(C)(C)NC2(C)C (stereo unspecified),,,inactive
Cc1ccc(-c2noc(CCC(=O)NCCN3CCc4ccccc4C3)n2)cc1,,inactive: -17.4%,
CCC(C)[C@H](NC(=O)NC1CCN(Cc2ccccc2)CC1)C(=O)OC (stereo partly specified),,,inactive [at 57.5 µM]
Cc1cccc(-n2c(SCC(=O)N3CCC(C(=O)O)CC3)nc3ccccc3c2=O)c1C,,inconclusive: 5.91% [activator],
O=C(N1CCCCCC1)N1CCN(C(=O)N2CCOCC2)CC1,"inconclusive: 50.1 µM [activator, single point]",,
CCOc1ccc(N(CC)S(=O)(=O)N2CCCC(C(=O)Nc3cc(Cl)ccc3OC)C2)cc1 (stereo unspecified),,,inactive
NC(=O)NC(=O)COC(=O)c1ccc(OC(F)(F)F)cc1,"inconclusive: 39.8 µM [activator, single point]",,
COCCOC(=O)C1=C(C)NC(=O)CC1c1cc2c(cc1Br)OCO2 (stereo unspecified),"inconclusive: 25.1 µM [activator, partial curve, poor fit]",,
O=C(C(Cc1ccccc1)n1cccc1)N1CCN(Cc2ccccc2)CC1 (stereo unspecified),,inactive: -17.4%,
CCOC(=O)CSc1ncnc2c(C(=O)OCC)c3n(c12)CCC3,,inactive: -20.7%,
Cc1ccccc1NS(=O)(=O)c1ccc(NC(=O)c2nc3ncccn3n2)cc1,,inactive: -23.6% [at 57.5 µM],
CCOC(=O)CSc1nc2c(sc(=S)n2-c2ccccc2)c(=O)n1-c1ccc(OC)cc1OC,,inconclusive: -2.38% [activator],
O=C1NC(=O)C(Cc2cccc(Oc3ccccc3)c2)S1 (stereo unspecified),,inactive: -18%,
CN1CCN(NC(=O)c2cccc(F)c2)CC1,,inconclusive: 32.8% [activator],
CC(NC(=O)/C(=C/c1ccc(OC(F)F)cc1)c1ccccc1)c1ccccc1 (stereo unspecified),,inactive: -46.6%,
COc1ccc(C2CC(c3ccccc3)=NN2C(=O)CCCC(=O)O)cc1 (stereo unspecified),"inconclusive: 28.2 µM [activator, single point]",,
Cc1ccc(O)c(NC(=O)c2cc(-c3ccccc3O)no2)c1,,,inactive

SMILES,Potency,activation,outcome
COc1cc2c(cc1OC)CN(C(=O)C1CCCN1S(=O)(=O)c1ccc(F)cc1)CC2 (stereo unspecified),,inconclusive: 42.7% [activator],
O=c1c2oc3ccccc3c2n(Cc2ccccc2F)c(=O)n1Cc1ccccc1,,inconclusive: 35.3% [activator],
CCOC(=O)C1=C(COCCN)NC(C)=C(C(=O)OC)C1c1ccccc1Cl (stereo unspecified),,inconclusive: -13.6% [activator],
CCn1ncc(Br)c1C(=O)Nc1ccccc1C(=O)OC,"inconclusive: 15.8 µM [activator, partial curve]",,
Cc1ccc(COC(=O)c2[nH]c3c(c2C)C(=O)CC(c2ccc(Cl)cc2)C3)cc1 (stereo unspecified),"inconclusive: 126 µM [activator, single point]",,
COc1ccc(NCc2ccc3c(c2)OCO3)cc1Cl,"inconclusive: 39.8 µM [activator, single point]",,
COc1ccc(N2CCN(C(=O)[C@@H](NC(=O)c3ccccc3Cl)C(C)C)CC2)cc1,,,inactive
CCn1c(CNC(=O)c2ccc(OC)cc2)nnc1SCC(=O)Nc1ccc(F)cc1,,inactive: -2.2%,
COc1cccc(-c2nc(CS(=O)(=O)CC(=O)Nc3ccc(C)c(Cl)c3)c(C)o2)c1,,inconclusive: -41.9% [activator],
Cc1cccc(C)c1NC(=O)NC1(C(=O)NCC2CCCO2)CCCCC1 (stereo unspecified),,inconclusive: 6.69% [activator],
Cc1cccc(C)c1NC(=O)C1c2ccccc2OCC(=O)N1Cc1ccccc1 (stereo unspecified),"inconclusive: 141 µM [activator, single point]",,
CCOc1ccc(-n2c(C)c(C(=O)O)c3cc(OC)ccc32)cc1,,inconclusive: 30.7% [activator],
O=C(Cn1cnc2ccccc2c1=O)NCc1ccc2c(c1)OCO2,"inconclusive: 35.5 µM [activator, single point]",,
CC[N+](CC)(CC)CCOc1ccc(/C=C/c2ccccc2)cc1,,,inactive
CCN(CC(=O)Nc1ccc(OC)cc1)C(=O)c1ccc(N2C(=O)CCC2=O)cc1,"inconclusive: 31.6 µM [activator, single point]",,
CC(C)c1ccc(CNCCSc2nnnn2-c2ccccc2)cc1,,,inactive
CCN(CC)S(=O)(=O)c1cccc(C(=O)Nc2cc(C)on2)c1,,,inactive
Cc1cc2cc(NC(=O)c3ccco3)ccc2[nH]1,"inconclusive: 2.82 µM [activator, partial curve]",,
CCN1CCN(c2cc(C)c3cc(NC(=O)/C=C/c4ccc(OCCC(C)C)cc4)ccc3n2)CC1,,,inactive
CC1CCC(C(C)C)C(OCC(O)CNC(C)C)C1 (stereo unspecified),"inconclusive: 126 µM [activator, single point]",,
COc1ccc(C(=O)Nc2cc(NC(=O)c3ccco3)ccc2OC)cc1Cl,"inconclusive: 158 µM [activator, single point]",,
Cc1nn(C(=O)/C(C#N)=C/N(C)C)c(C)c1C,"inconclusive: 25.1 µM [activator, partial curve, poor fit]",,
CC(=O)OCCCNc1cc(Sc2nc3ccccc3s2)c2nonc2c1[N+](=O)[O-],,inactive: -15.8%,
Nc1ccccc1NC(=O)CCn1c(=S)[nH]c2ccccc2c1=O,"inconclusive: 39.8 µM [activator, partial curve, poor fit]",,

SMILES,Potency,activation,outcome
COCCNC(=O)C(c1cccs1)N(CCc1ccccc1)C(=O)Cn1nnc2ccccc21 (stereo unspecified),"inconclusive: 35.5 µM [activator, single point]",,
CC(C)(C)NS(=O)(=O)c1ccc(NC(=O)c2cc(-c3ccccc3)nc3ccccc23)cc1,"inconclusive: 25.1 µM [activator, partial curve]",,
CCOC(=O)C1(Cc2ccccc2)CCCN(CCO)C1 (stereo unspecified),"inconclusive: 39.8 µM [activator, partial curve, poor fit]",,
CCn1c(CSCc2ccc(Cl)cc2)n[nH]c1=S,,inconclusive: -59.1% [activator],
Cc1cccc(C)c1NC(=O)CCSCCc1ccccn1,,,inactive
COc1ccc(C(=O)CSc2nnc(CNc3ccc(C)cc3C)o2)cc1,"inconclusive: 39.8 µM [activator, single point]",,
O=C(O)c1nc(NCCc2ccccc2)ncc1Cl,"inconclusive: 25.1 µM [activator, single point]",,
O=S(=O)(NCCc1ccc2c(c1)OCCO2)c1cccs1,"inconclusive: 39.8 µM [activator, single point]",,
CN(C)CCNC(=O)C(=O)Nc1ccc2c(c1)N(S(=O)(=O)c1cccs1)CCC2,,,inactive
CCCCc1cc2ccccc2c(OCCN(C)C)n1,"inconclusive: 70.8 µM [activator, partial curve, poor fit]",,
CC(C)CN(CC(C)C)C(=O)CCCC(=O)N(CC(C)C)CC(C)C,"inconclusive: 141 µM [activator, single point]",,
Cc1cccc(C)c1NC(=O)N1CCCCCCC1,"inconclusive: 126 µM [activator, single point]",,
O=C(COc1ccc(Cl)cc1)NNC(=O)c1ccncc1,"inconclusive: 44.7 µM [activator, single point]",,
COc1cc(C(=O)Nc2cc(C)c(O)c(-c3nc4ccccc4s3)c2)cc(OC)c1OC,"inconclusive: 12.6 µM [activator, partial curve, poor fit]",,
N#Cc1nc(-c2ccc(F)cc2)oc1N1CCC(C(N)=O)CC1,,inactive: -27.1%,
O=C(Nc1ccccc1[N+](=O)[O-])C1C(c2ccccc2)=C1c1ccccc1,"inconclusive: 39.8 µM [activator, single point]",,
O=C(CCNC(=O)c1ccco1)NNC(=O)c1ccc(Br)cc1,"inconclusive: 6.31 µM [activator, partial curve]",,
CC1(OC(=O)C2CCCC2)C(=O)C=C2C=C(c3ccsc3)N(CCc3c[nH]c4ccccc34)C=C2C1=O (stereo unspecified),"inconclusive: 100 µM [activator, single point]",,
O=C(c1cccnc1)N1CCc2ccccc21,,,inactive [at 57.5 µM]
COc1cccc(C(=O)Nc2nnc(C(C)C)s2)c1,,inactive: -31.6% [at 57.5 µM],
CCCCN(C(=O)CN(C)CC(=O)Nc1cccc(OC)c1)c1c(N)n(CCCC)c(=O)[nH]c1=O,,inconclusive: 66% [activator],
CCN(CC)c1ccc(NC(=O)C2CCN(S(=O)(=O)c3c(C)noc3/C=C/c3ccccc3F)CC2)c(C)c1,"inconclusive: 50.1 µM [activator, partial curve, poor fit]",,
Cc1nonc1C(=O)N/N=C/c1cc2c(cc1Br)OCO2,"inconclusive: 22.4 µM [activator, partial curve]",,

# 5 compounds out of the list, arranged by SMILES length, high to low:
SMILES,Potency,activation,outcome
Cc1ccc(S(=O)(=O)c2nnn3c2nc(N2CCCC2)c2sccc23)cc1,,inconclusive: 36.2% [activator],
COc1ccc(C2CC(c3ccccc3)=NN2C(=O)CCCC(=O)O)cc1 (stereo unspecified),"inconclusive: 28.2 µM [activator, single point]",,
Cc1ccc(O)c(NC(=O)c2cc(-c3ccccc3O)no2)c1,,,inactive
Cc1cccc(C)c1NC(=O)CCSCCc1ccccn1,,,inactive
CN1CCN(NC(=O)c2cccc(F)c2)CC1,,inconclusive: 32.8% [activator],
